# Primary screen of a compound library

Sequences of proteins named here, by UniProt entry; tags and fusion partners are left off. Residues count along the entry.
UniProt Q4DA54, 1-478: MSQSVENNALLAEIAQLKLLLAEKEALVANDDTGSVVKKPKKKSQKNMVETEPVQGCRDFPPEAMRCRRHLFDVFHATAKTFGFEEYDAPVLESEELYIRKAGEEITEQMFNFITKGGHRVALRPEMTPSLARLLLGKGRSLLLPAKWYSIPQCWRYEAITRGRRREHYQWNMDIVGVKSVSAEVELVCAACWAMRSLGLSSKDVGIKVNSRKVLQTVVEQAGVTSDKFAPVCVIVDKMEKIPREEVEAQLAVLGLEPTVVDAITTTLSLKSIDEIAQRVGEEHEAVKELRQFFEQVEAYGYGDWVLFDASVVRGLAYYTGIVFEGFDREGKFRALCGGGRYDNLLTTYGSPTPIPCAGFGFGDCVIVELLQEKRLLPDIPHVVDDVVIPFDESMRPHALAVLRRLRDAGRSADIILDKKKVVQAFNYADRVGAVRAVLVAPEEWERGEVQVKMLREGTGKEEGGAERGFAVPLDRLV

Measurements from “University of Dundee, Small-Polar-MMV Screening Library” (2021), ChEMBL document CHEMBL3988442.

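Enzyme assay of histidyl-tRNA synthetase; the read-out is not stated. Target: Histidine-tRNA ligase, Trypanosoma cruzi CL Brener (UniProt Q4DA54). Concentration: 30 µM. Higher reads as stronger inhibition (inferred: compounds with an IC50 in retests scored well above the rest). About 69,000 compounds were tested under these conditions; 0.045% (about 31) showed 50% or more at least once.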

The filed quantity is “Percent Effect” (%).
The record does not define 0% and 100%; most values in the screen are far below 50% and negative numbers occur (in some assays of this library far below -100).
The compounds are a random part of those screened.

Result for CCS(=O)(=O)N1CCC2(CC1)CN(Cc1ccccn1)C(=O)CO2 was 1.639%. CN1CCC(N(CCc2ccccc2)Cc2noc(C3CC3)n2)CC1 gave -0.9662%. Result for O=C1CN(C(=O)c2ccc(F)cc2)CC(O)CN1Cc1cccs1 (stereo not shown) was 5.618%. COc1ccc(CN2C[C@@H]3CN(Cc4ccncc4)C[C@@H]3C2=O)cc1 read 8.738%. COCCN1CCN(CCS(C)(=O)=O)CC1C (stereo not shown) read 3.509%. COc1cc2c(cc1OC)S(=O)(=O)N(Cc1ccccc1)C2=O read 2.632%. With Cc1cccc(CN(C(=O)NCc2ccccn2)C2CC2)c1 the screen gave 3.509%.

Result for Cn1nccc1CNC(=O)C1CCCCC1 was 0.8772%. For COCc1nc2c(o1)CN(C(=O)NCc1ccccc1)C2 the result was -3.448%. For O=C(c1cnc(O)cn1)N1C[C@@H]2CC[C@H](C1)N(Cc1ccccc1)C2 the result was 9.045%. Result for CN1CC2(CCN(C(=O)Cc3ccc(O)c(F)c3)CC2)CC1=O was 6.358%. Result for Cn1nc(C(=O)N2CCSCC2)cc1NC(=O)c1ccccc1 was 5.941%. Result for O=C(N1CCCC1)C12CC(CN1Cc1nccs1)C2 was 5.063%. Result for COc1cc(C)nc(N2CCN(C(=O)COCC(F)(F)F)CC2)n1 was 0.7634%.

Result for CCCOc1cc(CNC(=O)Nc2cccnc2N2CCCC2)ccn1 was 3.008%. O=C1CCCN1Cc1noc(-c2ccc(Cl)cc2)n1 read 2.959%. With CSc1ccc(OCCN2CCNC(=O)C2C)cc1 (stereo not shown) the screen gave 11.44%. With COc1cccc(CN2CCC3(COCc4cnc(N(C)C)nc43)C2)c1 (stereo not shown) the screen gave 3.483%. O=C(NCCN1CCCC(CO)C1)c1ccc2scnc2c1 (stereo not shown) read 7.097%. For c1cnnc(N2CCCC(NCc3ccc(-n4ccnc4)cc3)C2)c1 (stereo not shown) the result was 2.642%. C[C@@H]1CN(Cc2cccnc2)C[C@]12CCN(CCN1CCCC1)C2=O read 5.288%.

With CC(C)c1n[nH]c(C2CN(CC(=O)N(C)Cc3ccco3)CCO2)n1 (stereo not shown) the screen gave 0%. For Cc1cccc2nc(CN3CCC(N4CCN(C)C4=O)CC3)cn12 the result was 4.464%. Cn1ccc2ccnc(CC3CN(C(=O)C4CCC(F)(F)CC4)C3)c21 read 1.622%. Result for CCNC(=O)C1CCCN1S(=O)(=O)c1sc(=O)[nH]c1C (stereo not shown) was 3.03%. Result for CC(C)CC(=O)N1CC(=O)c2sc(Nc3ccc(C#N)cc3)nc2C1 was -1.13%. CC(C)C(=O)N1CCCC(c2cncc(Oc3cccnc3)n2)C1 (stereo not shown) gave 8.889%. With O=C(c1ccnnc1)N1CCN2C[C@H](Oc3cccnc3)C[C@H]2C1 the screen gave 0.8%.

O=C(c1ccco1)N1CCc2onc(Cn3cccn3)c2C1 read 7.438%. Result for Cc1cn2c(n1)CCC(NC(=O)c1cnc(C)nc1C(C)C)C2 (stereo not shown) was -1.132%. Cc1nc(N2CCOCC2)nc2c1CCN(Cc1nccn1C)CC2 read 6.533%. Cc1c(C(=O)N[C@@H]2CC[C@@H](N3CCCC3)[C@@H]2O)[nH]c2ccc(F)cc12 read 0.7692%. For Cc1c(NC(=O)c2ncn[nH]2)cccc1C(=O)NC(C)(C)C the result was 0%. For CNC(=O)[C@@]12CCO[C@@H]1CCN(S(=O)(=O)c1ccccc1F)C2 the result was -1.02%. With O=C(NCCSC1CCCC1)c1cnccn1 the screen gave 7.595%.

Result for CCc1cc(N(C)CCC(O)c2ccccc2)n2nccc2n1 (stereo not shown) was -4%. With CCNC(=O)NC(c1ccc(C)cc1)c1cccc(S(C)(=O)=O)c1 (stereo not shown) the screen gave 8.911%. CNc1cncc(C2CCCN2C(=O)Cn2ccnc2C)n1 (stereo not shown) gave 4.215%. O=C(c1ccccc1)N1CCO[C@@H]2CN(Cc3ccc[nH]3)C[C@@H]2C1 gave 7.407%. Fc1ccc(Cn2ncc3c2CN(c2noc(C4CC4)n2)C3)cc1 read 12.29%. For O=C(c1ccc(-n2ccnc2)nn1)N1CCCC1CCc1ccccc1 (stereo not shown) the result was 1.01%. Cc1cnn(CC(C)NCc2csc(-c3ncccn3)n2)c1 (stereo not shown) gave -1.127%.

For Cc1cccc(CN2CCN(C(=O)c3cccnc3O)CC2)c1 the result was 4.211%. For CCc1nc(CNC(=O)Nc2ccc(C(=O)NC)cc2C)cs1 the result was 2.905%.